Data: patent US20190203248A1 (Bristol-Myers Squibb, published 2019)
No constants are given. Whether binding was seen depends on the method and setting. Some binding calls cover weakened binding; strength is not graded here. Each block holds one binder with its values, some of them ahead of it.

Amino acid sequences for entries named in this document (tags omitted). A change or cut given only in a name is not applied to a line headed by its entry. Residues count along the entry.
UniProt P02768: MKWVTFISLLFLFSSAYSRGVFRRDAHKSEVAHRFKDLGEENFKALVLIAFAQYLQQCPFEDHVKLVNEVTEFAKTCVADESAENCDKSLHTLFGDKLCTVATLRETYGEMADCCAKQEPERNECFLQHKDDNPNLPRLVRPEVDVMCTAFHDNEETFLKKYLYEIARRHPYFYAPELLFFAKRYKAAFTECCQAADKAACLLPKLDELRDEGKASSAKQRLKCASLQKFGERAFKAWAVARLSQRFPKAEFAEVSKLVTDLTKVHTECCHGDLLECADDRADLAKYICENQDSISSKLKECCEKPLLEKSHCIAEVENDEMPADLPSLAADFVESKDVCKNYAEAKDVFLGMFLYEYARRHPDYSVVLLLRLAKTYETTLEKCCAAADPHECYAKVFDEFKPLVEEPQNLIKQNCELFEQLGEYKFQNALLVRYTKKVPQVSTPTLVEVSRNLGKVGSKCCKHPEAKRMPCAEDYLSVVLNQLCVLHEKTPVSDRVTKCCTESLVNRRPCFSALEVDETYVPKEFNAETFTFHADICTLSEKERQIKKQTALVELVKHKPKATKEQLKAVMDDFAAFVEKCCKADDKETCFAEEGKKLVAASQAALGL
HSA-domain I-II construct: residues 25-411 of P02768
UniProt Q28522, residues 17-600: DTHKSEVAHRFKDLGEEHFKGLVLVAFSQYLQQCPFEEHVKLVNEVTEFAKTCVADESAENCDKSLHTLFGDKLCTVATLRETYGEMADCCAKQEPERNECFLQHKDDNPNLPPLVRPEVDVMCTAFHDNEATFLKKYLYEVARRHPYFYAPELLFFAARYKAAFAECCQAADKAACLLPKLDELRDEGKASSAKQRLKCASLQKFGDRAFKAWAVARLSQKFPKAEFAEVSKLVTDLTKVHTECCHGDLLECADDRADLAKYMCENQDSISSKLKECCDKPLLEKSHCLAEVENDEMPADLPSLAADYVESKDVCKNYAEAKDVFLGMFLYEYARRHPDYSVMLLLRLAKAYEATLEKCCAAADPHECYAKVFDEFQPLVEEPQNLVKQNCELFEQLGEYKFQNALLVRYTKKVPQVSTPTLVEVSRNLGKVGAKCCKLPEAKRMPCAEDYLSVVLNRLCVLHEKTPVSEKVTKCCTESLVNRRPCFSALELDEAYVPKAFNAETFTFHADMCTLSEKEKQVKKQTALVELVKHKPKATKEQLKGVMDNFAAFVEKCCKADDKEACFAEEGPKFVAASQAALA

What was measured:
[1] = target: HSA-domain I-II construct (human) (UniProt P02768); assay: Biacore (SPR), binding level in RU at 100 nM and 1000 nM on immobilized recombinant HuSA domain I & II fragment
[2] = target: HSA-domain I-II construct (human) (UniProt P02768); assay: Biacore domain mapping, construct immobilized
rhesus serum albumin [3] = target: T1, rhesus serum albumin (rhesus, UniProt Q28522 17-600); assay: comment in summary table
T1 construct: also called RhSA

human serum albumin = target: T2, human serum albumin (human, UniProt P02768 25-609); assay: Biacore domain mapping, HSA immobilized
T2 construct: also called HSA; HuSA

rhesus serum albumin [4] = target: T1, rhesus serum albumin; assay: SPR (Biacore), albumin immobilized on CM5 chip

binding [1]: binds
B1: SABA1.2 (designed binder)
chain: MGVSDVPRDLEVVAATPTSLLISWHSYYEQNSYYRITYGETGGNSPVQEFTVPYSQTTATISGLKPGVDYTITVYAVYGSKYYYPISINYRTEIEDEDEDEDED
notes: also called core 1 10Fn3 comprising an (ED)5 extension

binding [2]: binds
B2: SABA2.1 (designed binder)
chain: MGVSDVPRDLEVVAATPTSLLISWPKYDKTGHYYRITYGETGGNSPVQEFTVPTRQTTATISGLKPGVDYTITVYAVSKDDYYPHEHRPISINYRTEIDKPSQHHHHHH
notes: His6-tagged Adnectin core 2

binding [2]: binds
B3: SABA1.1 (designed binder)
chain: MGVSDVPRDLEVVAATPTSLLISWHSYYEQNSYYRITYGETGGNSPVQEFTVPYSQTTATISGLKPGVDYTITVYAVYGSKYYYPISINYRTEIDKPSQHHHHHH

binding (rhesus serum albumin [3]): binds
binding (human serum albumin): binds
binding (rhesus serum albumin [4]): binds
B4: SABA4.1 (designed binder)
chain: MGVSDVPRDLEMVAATPTSLLISWEDDSYYSRYYRITYGETGGNSPVQEFTVPSDLYTATISGLKPGVDYTITVYAVTYDVTDLIMHEPISINYRTEIDKPSQHHHHHH
notes: His6-tagged Adnectin core 4; has a scaffold mutation; the scaffold-perfect version is SABA5
